Experimental findings from the supplement of paper PMC12819154, “High-throughput peptide-centric local stability assay extends protein–ligand identification to membrane proteins, tissues and bacteria” (Nature Structural & Molecular Biology, 2025) are described below.

By UniProt entry, the sequences of proteins in these tests, tags left out. Where a name states a change or a piece, a line headed by the entry shows the natural chain unless it says otherwise.
UniProt Q7RTT3, whole entry: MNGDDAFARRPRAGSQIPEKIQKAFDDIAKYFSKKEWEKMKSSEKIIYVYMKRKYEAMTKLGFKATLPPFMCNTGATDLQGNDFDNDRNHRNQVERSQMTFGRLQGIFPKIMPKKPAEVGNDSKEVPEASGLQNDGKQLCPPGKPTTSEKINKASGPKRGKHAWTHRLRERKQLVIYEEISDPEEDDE
UniProt Q6ZTQ4: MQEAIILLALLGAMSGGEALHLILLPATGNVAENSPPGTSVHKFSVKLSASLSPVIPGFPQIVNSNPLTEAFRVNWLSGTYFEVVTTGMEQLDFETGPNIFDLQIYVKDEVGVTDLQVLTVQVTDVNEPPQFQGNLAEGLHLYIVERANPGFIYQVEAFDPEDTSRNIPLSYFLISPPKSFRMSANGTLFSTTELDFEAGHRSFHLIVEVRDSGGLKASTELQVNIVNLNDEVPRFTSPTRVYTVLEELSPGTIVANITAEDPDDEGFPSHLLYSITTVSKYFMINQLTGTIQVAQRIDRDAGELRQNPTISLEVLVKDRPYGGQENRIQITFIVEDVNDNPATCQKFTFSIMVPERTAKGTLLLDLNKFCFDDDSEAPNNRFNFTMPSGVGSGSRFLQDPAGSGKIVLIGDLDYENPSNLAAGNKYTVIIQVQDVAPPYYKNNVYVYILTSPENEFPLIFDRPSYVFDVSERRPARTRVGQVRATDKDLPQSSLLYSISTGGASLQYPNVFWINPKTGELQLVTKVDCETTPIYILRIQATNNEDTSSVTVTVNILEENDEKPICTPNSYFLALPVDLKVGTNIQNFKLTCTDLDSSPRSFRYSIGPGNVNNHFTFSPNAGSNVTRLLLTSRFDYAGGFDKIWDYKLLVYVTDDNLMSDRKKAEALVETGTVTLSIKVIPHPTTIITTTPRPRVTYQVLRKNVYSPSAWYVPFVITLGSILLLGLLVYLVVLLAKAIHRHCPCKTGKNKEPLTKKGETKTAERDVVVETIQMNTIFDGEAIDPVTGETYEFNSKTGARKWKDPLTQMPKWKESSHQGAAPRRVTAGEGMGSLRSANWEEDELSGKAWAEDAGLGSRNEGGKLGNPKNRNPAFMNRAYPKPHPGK
UniProt Q7LG56, whole entry: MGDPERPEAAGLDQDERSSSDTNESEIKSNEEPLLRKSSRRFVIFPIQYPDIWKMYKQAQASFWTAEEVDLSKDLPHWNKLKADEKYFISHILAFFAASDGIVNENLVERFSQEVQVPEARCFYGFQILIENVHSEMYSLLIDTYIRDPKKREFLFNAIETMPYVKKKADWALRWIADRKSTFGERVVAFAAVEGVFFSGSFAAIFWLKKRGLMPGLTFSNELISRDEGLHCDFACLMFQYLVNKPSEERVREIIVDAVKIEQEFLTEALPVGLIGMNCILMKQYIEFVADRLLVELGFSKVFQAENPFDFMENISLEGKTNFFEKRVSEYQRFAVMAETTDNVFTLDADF
UniProt Q6ZNW5: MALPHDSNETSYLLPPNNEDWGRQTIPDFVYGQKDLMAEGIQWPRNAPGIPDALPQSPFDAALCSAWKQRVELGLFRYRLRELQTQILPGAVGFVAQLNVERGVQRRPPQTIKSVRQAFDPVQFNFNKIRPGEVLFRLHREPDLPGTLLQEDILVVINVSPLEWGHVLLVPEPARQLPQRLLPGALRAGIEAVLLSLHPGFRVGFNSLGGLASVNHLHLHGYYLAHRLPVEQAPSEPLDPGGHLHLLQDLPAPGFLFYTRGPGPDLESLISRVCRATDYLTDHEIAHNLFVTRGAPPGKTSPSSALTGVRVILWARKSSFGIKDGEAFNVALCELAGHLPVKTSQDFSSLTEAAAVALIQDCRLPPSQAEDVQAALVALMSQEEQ
UniProt Q71F23: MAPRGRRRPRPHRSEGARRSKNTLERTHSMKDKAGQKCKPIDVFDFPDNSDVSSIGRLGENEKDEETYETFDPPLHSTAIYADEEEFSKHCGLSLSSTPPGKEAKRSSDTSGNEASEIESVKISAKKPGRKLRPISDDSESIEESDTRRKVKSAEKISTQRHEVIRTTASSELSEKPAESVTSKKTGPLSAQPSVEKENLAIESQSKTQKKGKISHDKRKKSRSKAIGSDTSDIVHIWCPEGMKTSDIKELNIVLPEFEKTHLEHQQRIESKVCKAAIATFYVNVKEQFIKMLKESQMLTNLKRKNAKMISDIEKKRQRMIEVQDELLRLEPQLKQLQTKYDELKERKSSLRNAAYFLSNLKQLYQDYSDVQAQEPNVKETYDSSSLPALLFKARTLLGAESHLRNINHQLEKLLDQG
UniProt Q6ZTW0: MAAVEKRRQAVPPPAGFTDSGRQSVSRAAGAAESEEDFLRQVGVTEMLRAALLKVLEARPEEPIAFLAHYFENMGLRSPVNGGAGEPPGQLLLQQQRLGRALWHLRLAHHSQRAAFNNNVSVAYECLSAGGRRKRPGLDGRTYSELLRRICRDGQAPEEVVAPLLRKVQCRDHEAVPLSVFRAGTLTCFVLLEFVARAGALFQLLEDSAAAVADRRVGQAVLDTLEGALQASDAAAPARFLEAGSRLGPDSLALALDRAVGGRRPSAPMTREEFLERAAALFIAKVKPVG
UniProt Q7Z5U6: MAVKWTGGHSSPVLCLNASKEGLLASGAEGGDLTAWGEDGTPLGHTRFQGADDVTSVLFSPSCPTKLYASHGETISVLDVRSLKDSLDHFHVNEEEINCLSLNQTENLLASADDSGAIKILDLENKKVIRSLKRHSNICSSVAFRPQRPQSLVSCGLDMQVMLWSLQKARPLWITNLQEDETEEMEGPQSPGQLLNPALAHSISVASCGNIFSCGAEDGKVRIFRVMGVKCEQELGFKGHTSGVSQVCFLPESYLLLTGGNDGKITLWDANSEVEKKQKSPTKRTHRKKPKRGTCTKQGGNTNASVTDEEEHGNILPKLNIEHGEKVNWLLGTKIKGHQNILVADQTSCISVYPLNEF
UniProt Q6ZWH5: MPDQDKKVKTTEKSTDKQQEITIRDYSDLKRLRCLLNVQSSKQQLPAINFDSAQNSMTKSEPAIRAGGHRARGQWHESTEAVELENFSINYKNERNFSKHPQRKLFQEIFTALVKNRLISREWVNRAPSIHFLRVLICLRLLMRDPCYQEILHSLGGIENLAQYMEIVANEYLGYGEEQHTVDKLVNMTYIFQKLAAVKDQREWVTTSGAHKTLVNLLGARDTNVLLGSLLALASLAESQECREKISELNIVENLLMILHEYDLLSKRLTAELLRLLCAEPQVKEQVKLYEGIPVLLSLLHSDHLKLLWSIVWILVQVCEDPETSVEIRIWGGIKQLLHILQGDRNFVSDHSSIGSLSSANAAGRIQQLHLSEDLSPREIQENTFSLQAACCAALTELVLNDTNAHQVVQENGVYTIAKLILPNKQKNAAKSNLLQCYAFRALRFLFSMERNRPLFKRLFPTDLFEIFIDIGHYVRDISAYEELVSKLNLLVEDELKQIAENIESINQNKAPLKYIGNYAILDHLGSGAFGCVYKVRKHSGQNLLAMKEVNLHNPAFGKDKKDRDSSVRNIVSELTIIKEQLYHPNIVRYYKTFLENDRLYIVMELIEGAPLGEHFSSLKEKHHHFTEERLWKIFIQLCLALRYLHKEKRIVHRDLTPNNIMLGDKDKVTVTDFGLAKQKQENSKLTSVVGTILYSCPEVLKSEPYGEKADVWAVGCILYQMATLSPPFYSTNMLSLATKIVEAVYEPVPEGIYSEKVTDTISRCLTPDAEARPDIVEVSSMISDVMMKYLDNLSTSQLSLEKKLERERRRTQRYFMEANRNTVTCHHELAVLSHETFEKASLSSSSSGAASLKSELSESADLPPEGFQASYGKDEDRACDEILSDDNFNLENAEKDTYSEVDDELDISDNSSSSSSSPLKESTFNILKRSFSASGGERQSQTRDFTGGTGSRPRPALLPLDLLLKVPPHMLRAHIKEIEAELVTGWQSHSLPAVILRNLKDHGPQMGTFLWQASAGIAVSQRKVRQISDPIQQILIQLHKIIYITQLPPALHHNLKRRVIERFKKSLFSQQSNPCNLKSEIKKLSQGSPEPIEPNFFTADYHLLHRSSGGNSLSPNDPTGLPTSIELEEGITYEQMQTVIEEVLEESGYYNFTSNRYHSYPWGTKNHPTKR
UniProt Q7L014: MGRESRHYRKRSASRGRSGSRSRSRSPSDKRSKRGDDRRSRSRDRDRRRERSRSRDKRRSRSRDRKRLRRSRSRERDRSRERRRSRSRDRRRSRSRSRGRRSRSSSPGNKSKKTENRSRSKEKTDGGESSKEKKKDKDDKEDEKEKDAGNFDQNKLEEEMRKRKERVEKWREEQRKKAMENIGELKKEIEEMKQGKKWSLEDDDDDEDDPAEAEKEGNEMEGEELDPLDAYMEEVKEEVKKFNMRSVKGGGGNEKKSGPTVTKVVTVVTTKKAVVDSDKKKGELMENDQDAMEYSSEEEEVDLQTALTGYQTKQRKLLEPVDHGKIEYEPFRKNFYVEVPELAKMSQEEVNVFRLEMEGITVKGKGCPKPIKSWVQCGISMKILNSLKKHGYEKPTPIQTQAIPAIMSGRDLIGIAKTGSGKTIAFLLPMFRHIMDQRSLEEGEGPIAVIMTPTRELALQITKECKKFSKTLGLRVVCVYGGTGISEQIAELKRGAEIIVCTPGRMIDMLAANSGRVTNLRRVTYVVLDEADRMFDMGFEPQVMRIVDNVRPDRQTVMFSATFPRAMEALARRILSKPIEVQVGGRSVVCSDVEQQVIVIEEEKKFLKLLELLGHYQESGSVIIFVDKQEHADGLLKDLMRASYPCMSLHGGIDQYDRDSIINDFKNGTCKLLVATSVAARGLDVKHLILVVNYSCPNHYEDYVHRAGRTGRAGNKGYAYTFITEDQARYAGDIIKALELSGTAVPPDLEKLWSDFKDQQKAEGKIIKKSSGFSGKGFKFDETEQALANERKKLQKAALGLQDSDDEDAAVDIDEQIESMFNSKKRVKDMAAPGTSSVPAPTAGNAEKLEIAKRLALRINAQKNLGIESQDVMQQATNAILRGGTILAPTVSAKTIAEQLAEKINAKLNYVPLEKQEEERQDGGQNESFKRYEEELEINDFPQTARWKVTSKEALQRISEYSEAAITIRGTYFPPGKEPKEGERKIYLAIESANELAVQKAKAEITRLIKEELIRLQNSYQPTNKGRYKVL
UniProt Q7Z478: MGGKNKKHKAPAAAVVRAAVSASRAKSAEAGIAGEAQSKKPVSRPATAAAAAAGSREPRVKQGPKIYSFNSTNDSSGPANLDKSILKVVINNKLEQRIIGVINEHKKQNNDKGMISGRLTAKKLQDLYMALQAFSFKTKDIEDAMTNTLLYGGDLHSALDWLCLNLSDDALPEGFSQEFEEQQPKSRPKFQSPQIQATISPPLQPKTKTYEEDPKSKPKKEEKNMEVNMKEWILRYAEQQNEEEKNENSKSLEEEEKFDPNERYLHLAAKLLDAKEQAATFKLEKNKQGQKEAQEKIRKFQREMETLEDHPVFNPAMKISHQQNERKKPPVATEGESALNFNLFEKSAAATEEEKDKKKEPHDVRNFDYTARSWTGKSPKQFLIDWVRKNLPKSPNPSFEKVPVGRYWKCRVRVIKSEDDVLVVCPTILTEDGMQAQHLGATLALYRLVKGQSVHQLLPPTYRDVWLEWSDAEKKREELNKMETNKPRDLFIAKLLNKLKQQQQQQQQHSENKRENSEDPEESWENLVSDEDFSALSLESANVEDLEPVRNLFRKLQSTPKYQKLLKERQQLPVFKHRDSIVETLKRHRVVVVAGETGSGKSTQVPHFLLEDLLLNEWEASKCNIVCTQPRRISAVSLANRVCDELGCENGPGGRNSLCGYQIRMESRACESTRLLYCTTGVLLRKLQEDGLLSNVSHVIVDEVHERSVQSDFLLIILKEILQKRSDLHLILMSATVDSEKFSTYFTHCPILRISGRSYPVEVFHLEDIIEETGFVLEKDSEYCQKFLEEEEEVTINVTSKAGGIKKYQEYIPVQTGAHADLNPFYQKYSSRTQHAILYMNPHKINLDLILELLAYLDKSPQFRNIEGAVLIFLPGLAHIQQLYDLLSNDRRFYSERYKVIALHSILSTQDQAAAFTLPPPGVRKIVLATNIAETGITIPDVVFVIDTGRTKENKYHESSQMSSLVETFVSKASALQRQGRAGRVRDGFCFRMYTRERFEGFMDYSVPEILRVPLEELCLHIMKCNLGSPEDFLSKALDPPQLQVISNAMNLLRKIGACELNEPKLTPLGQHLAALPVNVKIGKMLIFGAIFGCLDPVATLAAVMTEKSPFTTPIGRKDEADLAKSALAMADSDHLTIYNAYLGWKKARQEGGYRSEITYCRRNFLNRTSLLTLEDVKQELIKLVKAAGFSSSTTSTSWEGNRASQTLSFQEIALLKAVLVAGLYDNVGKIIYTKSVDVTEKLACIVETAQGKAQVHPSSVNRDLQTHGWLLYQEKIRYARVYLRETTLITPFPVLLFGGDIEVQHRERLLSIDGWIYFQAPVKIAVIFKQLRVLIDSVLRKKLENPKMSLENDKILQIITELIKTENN
UniProt Q86T23: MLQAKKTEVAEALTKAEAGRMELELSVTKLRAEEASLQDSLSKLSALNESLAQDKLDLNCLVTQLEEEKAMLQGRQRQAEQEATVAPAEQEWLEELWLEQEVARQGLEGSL

The other results are listed elsewhere or left out. Most entries show no effect beyond the scatter of the controls.

Compound in the assay: CN[C@@H]1C[C@H]2O[C@@](C)([C@@H]1OC)n1c3ccccc3c3c4c(c5c6ccccc6n2c5c31)C(=O)NC4 [staurosporine]
Put plainly: log2 fold change of tryptic peptide abundance, ligand vs vehicle (limited proteolysis) (log2 ratio); higher = more trypsin-susceptible (destabilized). As to conditions: ligand concentration: 20 uM; sample: K562 cleared lysate; digestion: 4 min, 22 C (HT-PELSA RT4min, Orbitrap Astral).
On to “ASXL2 (peptide sequence: DSSIDTHQYHEGLSK, peptide start residue: 1046) (UniProt Q76L83)”, for which the log2 fold change is 0.294.

Take “UniProt Q7RTT3 (peptide sequence: KYEAMTK, peptide start residue: 54)”: the log2 fold change stood at 0.576.

With “UniProt Q6ZTQ4 (peptide sequence: NIPLSYFLISPPK, peptide start residue: 167)”, the log2 fold change was 0.16.

Regarding “UniProt Q7L804 (peptide sequence: VMEETPSILR, peptide start residue: 488)”, the log2 fold change came to 0.624.

Consider “RRM2B (peptide sequence: SNEEPLLR, peptide start residue: 29) (UniProt Q7LG56)”, for which the log2 fold change was determined as 0.255.

“CDC37L1 (peptide sequence: EKMCLWSTDAISK, peptide start residue: 121) (UniProt Q7L3B6)”: the log2 fold change is -0.57.

Turning to “DTX2 (peptide sequence: TASVFGTHQAFAPYNKPSLSGAR, peptide start residue: 234) (UniProt Q86UW9)”, the log2 fold change was -0.141.

In the case of “CREB3L2 (peptide sequence: APSALSSSPLLTAPHK, peptide start residue: 242) (UniProt Q70SY1)”, the log2 fold change was found to be 0.375.

With “GLCCI1 (peptide sequence: RSPESHR, peptide start residue: 130) (UniProt Q86VQ1)”, the log2 fold change was -0.115.

In the case of “SMG6 (peptide sequence: GNVAKEEVANKPDR, peptide start residue: 184) (UniProt Q86US8)”, the log2 fold change was 0.47.

Consider “FERMT3 (peptide sequence: LTQLYEQAR, peptide start residue: 268) (UniProt Q86UX7)”, for which the log2 fold change was 0.225.

Consider “UniProt Q6ZR52 (peptide sequence: SSHLTTHKR, peptide start residue: 301)”, for which the log2 fold change is -0.00984.

In the case of “POGZ (peptide sequence: YLSFEAEEK, peptide start residue: 1022) (UniProt Q7Z3K3)”, the log2 fold change is -0.341.

Take “MTDH (peptide sequence: EVDEGAWETK, peptide start residue: 186) (UniProt Q86UE4)”: the log2 fold change was 0.148.

On to “UniProt Q7L8S5 (peptide sequence: RERMESEER, peptide start residue: 98)”, for which the log2 fold change is -0.0615.

As to “UniProt Q7Z6J4 (peptide sequence: RYLNSLKNK, peptide start residue: 71)”, the log2 fold change is 0.0671.

With “UniProt Q6ZNW5 (peptide sequence: AGIEAVLLSLHPGFR, peptide start residue: 188)”, the log2 fold change came to 0.188.

“UniProt Q7Z5K2 (peptide sequence: SMDEFTASTPADLGEAGR, peptide start residue: 380)”: the log2 fold change was 0.478.

Take “CEP128 (peptide sequence: ETLLHQVEELR, peptide start residue: 303) (UniProt Q6ZU80)”: the log2 fold change is 0.083.

In the case of “RNF111 (peptide sequence: ENQGILGLR, peptide start residue: 111) (UniProt Q6ZNA4)”, the log2 fold change came to 0.389.

As to “EP400P1 (peptide sequence: MQHVSSSQSSQR, peptide start residue: 1) (UniProt Q6ZTU2)”, the log2 fold change is -0.265.

As to “UniProt Q71F23 (peptide sequence: AAIATFYVNVK, peptide start residue: 276)”, the log2 fold change was -0.211.

For the target “UniProt Q712K3 (peptide sequence: SLQEEPVEGFR, peptide start residue: 19)”, the log2 fold change amounted to 0.346.

Consider “UniProt Q6ZTW0 (peptide sequence: AGALFQLLEDSAAAVADRR, peptide start residue: 198)”, for which the log2 fold change was -0.19.

“MRPL52 (peptide sequence: QENALKPK, peptide start residue: 105) (UniProt Q86TS9)”: the log2 fold change stood at 0.185.

“WDR53 (peptide sequence: VNWLLGTK, peptide start residue: 327) (UniProt Q7Z5U6)”: the log2 fold change was found to be 0.227.

In the case of “NEK10 (peptide sequence: VTVTDFGLAK, peptide start residue: 669) (UniProt Q6ZWH5)”, the log2 fold change is -0.185.

Consider “USP34 (peptide sequence: AYNPRPFCK, peptide start residue: 1954) (UniProt Q70CQ2)”, for which the log2 fold change is -0.923.

Consider “UniProt Q6ZWB6 (peptide sequence: GAAAAVPSGPGAHGGGGGGGAQDK, peptide start residue: 181)”, for which the log2 fold change is -0.0942.

“DDX46 (peptide sequence: MIDMLAANSGR, peptide start residue: 506) (UniProt Q7L014)”: the log2 fold change amounted to 0.167.

As to “UBR3 (peptide sequence: TLDKEER, peptide start residue: 1176) (UniProt Q6ZT12)”, the log2 fold change stood at 0.262.

On to “ZFHX4 (peptide sequence: QQQEQQQKPVQAK, peptide start residue: 3287) (UniProt Q86UP3)”, for which the log2 fold change is -0.256.

Regarding “DHX29 (peptide sequence: KEPHDVR, peptide start residue: 359) (UniProt Q7Z478)”, the log2 fold change turned out to be 0.426.

In the case of “UniProt Q6ZSB9 (peptide sequence: TLDESHPHASPSVNR, peptide start residue: 169)”, the log2 fold change is -0.253.

Take “UniProt Q7Z7F0 (peptide sequence: GKGSGCIEPASGR, peptide start residue: 275)”: the log2 fold change came out at 0.331.

As to “CROCCP2 (peptide sequence: LRAEEASLQDSLSK, peptide start residue: 727) (UniProt Q86T23)”, the log2 fold change worked out at 0.151.

“UniProt Q86UL8 (peptide sequence: TTSWLDPR, peptide start residue: 325)”: the log2 fold change worked out at 0.0408.
